Source: paper PMC6264874, “A single class of ARF GTPase activated by several pathway-specific ARF-GEFs regulates essential membrane traffic in Arabidopsis” (PLoS Genetics, 2018)

The chains behind the UniProt entries cited, without tags or fusion partners.
UniProt P36397: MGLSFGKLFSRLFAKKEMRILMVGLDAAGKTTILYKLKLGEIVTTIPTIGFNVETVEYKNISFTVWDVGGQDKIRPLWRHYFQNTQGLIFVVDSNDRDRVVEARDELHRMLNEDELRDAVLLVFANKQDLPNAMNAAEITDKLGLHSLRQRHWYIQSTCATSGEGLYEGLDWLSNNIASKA
UniProt Q9LS94: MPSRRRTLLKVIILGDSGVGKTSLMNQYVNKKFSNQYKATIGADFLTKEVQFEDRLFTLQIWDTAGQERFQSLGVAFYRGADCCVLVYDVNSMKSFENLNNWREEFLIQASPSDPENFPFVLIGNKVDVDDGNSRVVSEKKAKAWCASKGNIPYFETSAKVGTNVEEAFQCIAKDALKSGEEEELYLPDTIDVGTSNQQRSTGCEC
UniProt Q9LZX8: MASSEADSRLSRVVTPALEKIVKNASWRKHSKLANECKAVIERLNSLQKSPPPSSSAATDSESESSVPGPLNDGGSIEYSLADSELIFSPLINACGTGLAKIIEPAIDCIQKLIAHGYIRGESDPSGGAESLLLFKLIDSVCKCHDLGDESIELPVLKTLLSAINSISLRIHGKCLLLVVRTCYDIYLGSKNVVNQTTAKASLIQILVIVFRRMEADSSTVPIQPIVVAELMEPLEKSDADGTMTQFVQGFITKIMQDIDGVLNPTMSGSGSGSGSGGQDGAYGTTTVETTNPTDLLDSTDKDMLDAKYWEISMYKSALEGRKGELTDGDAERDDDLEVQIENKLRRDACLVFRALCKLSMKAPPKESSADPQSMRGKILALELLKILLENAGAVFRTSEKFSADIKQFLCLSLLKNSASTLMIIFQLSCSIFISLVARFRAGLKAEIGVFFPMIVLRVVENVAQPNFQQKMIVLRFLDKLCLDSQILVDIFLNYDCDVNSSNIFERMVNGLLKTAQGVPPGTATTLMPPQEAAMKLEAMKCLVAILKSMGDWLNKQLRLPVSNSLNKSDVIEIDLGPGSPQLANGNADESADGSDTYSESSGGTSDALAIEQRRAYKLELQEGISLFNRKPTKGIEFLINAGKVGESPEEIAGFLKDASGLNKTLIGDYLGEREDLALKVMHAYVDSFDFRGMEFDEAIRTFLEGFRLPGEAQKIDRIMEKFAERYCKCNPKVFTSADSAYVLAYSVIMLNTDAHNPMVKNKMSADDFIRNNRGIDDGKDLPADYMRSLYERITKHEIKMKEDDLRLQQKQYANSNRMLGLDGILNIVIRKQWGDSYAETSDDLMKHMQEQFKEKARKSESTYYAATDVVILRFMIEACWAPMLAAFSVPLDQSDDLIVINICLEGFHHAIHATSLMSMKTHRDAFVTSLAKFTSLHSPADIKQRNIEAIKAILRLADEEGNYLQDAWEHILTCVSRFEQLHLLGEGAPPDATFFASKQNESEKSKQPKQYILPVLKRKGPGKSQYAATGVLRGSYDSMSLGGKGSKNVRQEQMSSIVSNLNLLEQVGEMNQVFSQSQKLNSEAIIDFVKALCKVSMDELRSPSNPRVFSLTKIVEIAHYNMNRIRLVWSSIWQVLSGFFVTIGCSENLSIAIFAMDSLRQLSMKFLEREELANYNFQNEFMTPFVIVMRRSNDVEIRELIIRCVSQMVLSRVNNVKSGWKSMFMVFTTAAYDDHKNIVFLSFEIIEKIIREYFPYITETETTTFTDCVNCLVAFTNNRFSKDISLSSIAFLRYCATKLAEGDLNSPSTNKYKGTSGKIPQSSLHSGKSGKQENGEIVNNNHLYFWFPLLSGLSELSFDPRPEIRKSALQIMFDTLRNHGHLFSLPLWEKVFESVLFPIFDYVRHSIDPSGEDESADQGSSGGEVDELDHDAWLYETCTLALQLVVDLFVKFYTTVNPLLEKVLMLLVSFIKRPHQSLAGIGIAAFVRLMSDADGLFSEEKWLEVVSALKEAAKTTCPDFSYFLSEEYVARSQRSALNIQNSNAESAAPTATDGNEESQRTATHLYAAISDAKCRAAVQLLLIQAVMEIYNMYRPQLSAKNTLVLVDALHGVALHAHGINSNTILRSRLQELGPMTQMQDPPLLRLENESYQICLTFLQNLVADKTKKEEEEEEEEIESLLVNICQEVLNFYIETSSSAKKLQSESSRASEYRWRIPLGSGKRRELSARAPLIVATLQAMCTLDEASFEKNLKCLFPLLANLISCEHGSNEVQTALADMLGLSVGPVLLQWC
UniProt Q9LPC5: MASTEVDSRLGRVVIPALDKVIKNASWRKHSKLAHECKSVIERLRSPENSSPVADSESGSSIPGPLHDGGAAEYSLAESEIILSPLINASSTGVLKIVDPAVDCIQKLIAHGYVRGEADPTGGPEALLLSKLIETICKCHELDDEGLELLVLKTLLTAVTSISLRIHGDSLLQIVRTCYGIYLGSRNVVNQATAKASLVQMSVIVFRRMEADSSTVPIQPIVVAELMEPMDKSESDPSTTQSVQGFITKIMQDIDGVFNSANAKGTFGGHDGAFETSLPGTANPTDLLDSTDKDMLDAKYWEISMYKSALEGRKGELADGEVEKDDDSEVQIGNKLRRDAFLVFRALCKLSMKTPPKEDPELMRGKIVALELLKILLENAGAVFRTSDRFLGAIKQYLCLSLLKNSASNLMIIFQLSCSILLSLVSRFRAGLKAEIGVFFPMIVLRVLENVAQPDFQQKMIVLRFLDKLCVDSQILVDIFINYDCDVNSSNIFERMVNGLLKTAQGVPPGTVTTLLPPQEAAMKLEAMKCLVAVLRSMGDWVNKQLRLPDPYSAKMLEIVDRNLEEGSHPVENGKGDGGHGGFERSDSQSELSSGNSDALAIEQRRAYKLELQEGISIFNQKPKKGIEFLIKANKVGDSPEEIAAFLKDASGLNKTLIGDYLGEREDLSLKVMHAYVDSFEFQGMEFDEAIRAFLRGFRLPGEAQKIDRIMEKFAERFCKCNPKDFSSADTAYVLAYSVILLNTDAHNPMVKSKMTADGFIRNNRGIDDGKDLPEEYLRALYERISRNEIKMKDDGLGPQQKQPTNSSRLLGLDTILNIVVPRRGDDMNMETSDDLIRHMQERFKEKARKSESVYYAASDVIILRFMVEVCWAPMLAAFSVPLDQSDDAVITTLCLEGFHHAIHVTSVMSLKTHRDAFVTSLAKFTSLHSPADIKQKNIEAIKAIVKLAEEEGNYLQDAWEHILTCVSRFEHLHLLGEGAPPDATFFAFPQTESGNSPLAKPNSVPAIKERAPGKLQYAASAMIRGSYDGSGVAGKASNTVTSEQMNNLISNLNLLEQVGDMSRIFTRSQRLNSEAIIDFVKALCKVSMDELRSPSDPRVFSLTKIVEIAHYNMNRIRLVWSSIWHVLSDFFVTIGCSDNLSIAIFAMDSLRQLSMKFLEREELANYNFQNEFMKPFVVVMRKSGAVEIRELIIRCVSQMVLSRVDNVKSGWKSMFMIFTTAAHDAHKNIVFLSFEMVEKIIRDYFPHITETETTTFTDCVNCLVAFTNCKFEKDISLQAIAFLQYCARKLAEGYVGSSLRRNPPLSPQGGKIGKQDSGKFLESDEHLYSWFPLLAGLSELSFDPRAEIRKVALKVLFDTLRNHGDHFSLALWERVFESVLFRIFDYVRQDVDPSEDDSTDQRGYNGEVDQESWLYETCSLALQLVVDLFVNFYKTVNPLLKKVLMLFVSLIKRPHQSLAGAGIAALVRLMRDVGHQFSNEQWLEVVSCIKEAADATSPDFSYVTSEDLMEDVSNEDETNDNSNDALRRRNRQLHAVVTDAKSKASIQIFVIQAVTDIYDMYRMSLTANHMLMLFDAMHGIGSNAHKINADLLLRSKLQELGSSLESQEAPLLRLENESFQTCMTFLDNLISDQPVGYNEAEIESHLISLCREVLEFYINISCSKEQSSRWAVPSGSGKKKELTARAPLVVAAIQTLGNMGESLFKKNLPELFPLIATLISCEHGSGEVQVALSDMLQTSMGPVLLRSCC
UniProt F4JSZ5: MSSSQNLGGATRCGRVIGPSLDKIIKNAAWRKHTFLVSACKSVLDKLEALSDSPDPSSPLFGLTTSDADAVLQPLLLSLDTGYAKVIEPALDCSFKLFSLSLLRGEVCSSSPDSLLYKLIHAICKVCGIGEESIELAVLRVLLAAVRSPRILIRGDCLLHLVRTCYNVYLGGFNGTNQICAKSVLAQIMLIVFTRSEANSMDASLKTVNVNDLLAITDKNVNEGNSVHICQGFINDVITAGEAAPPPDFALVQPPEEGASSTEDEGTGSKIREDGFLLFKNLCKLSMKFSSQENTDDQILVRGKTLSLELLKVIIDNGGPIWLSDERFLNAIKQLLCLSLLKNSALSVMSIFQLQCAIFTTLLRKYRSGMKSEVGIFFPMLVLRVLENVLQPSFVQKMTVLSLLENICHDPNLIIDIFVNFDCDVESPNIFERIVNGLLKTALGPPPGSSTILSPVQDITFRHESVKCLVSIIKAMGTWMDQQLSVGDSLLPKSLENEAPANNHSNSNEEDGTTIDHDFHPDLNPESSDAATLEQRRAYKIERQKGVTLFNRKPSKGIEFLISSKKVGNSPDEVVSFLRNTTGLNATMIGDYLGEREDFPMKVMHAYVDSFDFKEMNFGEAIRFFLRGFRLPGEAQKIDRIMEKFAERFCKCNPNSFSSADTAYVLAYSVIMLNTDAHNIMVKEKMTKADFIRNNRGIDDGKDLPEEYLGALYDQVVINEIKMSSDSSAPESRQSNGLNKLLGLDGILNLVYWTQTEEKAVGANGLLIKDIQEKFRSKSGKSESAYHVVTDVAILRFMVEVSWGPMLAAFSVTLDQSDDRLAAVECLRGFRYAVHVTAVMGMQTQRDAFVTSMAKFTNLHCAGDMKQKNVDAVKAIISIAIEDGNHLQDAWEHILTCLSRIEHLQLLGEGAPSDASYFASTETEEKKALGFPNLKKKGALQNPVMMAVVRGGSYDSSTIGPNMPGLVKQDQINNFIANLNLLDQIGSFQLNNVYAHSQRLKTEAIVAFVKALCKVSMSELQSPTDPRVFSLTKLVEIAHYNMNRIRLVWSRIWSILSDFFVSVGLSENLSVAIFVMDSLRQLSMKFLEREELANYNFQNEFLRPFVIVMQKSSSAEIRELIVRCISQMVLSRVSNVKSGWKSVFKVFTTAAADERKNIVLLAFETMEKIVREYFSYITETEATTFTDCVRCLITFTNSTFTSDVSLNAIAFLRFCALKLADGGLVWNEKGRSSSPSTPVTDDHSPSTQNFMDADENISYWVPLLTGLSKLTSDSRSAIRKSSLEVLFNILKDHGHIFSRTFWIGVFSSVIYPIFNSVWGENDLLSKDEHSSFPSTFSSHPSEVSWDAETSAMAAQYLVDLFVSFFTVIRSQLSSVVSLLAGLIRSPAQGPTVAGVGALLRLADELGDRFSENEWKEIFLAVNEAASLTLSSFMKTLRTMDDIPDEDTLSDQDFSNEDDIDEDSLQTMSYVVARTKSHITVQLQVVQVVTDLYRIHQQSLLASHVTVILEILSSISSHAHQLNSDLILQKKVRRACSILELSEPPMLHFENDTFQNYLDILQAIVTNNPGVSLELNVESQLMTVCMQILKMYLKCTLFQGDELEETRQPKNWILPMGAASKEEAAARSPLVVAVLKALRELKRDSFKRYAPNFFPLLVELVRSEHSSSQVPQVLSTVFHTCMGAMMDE

Key:
Experiment in all cases: affinity purification with mass spectrometry; YFP-tagged GTPases (ARF and RABG3f) immunoprecipitated with GFP-Trap beads from Arabidopsis seedling extracts in the presence of brefeldin A (50 uM); eluted proteins analysed by LC-MS/MS
[1] = biological target: ARF1-YFP (ARFA1c-YFP) (Arabidopsis thaliana) (UniProt P36397)
[2] = biological target: YFP-RABG3f (Arabidopsis thaliana) (UniProt Q9LS94)
[3] = biological target: ARFA-YFP (ARFB1b-YFP) (Arabidopsis thaliana)

Molecule | binding [1] | binding [2] | binding [3]
endogenous BIG4 (from UniProt F4JN05 1-1706) | binds | no binding | 
endogenous BIG2 (from UniProt Q9LZX8 1-1793) | binds | no binding | 
endogenous BIG3 (from UniProt Q9LPC5 1-1750) | binds | no binding | 
endogenous GNL1 (protein, UniProt Q9FLY5 1-1443) MGYQNHPSGSNSFHGEFKRCHSKPSKGAVASMINSEIGAVLAVMRRNVRWGVRYIADDDQLEHSLIHSLKELRKQIFSWQSNWQYVDPRLYIQPFLDVILSDETGAPITGVALSSVYKILTLEVFTLETVNVGEAMHIIVDAVKSCRFEVTDPASEEVVLMKILQVLLACVKSKASNGLSNQDICTIVNTCLRVVHQSSSKSELLQRIARHTMHELIRCIFSQLPFISPLANECELHVDNKVGTVDWDPNSGEKRVENGNIASISDTLGTDKDDPSSEMVIPETDLRNDEKKTEVSDDLNAAANGENAMMAPYGIPCMVEIFHFLCTLLNVGENGEVNSRSNPIAFDEDVPLFALGLINSAIELGGPSFREHPKLLTLIQDDLFCNLMQFGMSMSPLILSTVCSIVLNLYLNLRTELKVQLEAFFSYVLLRIAQSKHGSSYQQQEVAMEALVDLCRQHTFIAEVFANFDCDITCSNVFEDVSNLLSKNAFPVNGPLSAMHILALDGLISMVQGMAERVGEELPASDVPTHEERYEEFWTVRCENYGDPNFWVPFVRKVKHIKKKLMLGADRFNRDPNKGLQYLQGVHLLPEKLDPKSVACFFRYTCGLDKNVMGDFLGNHDQFCIQVLHEFAKTFDFQNMNLATALRLFVGTFKLSGEAQKIHRVLEAFSERYYEQSPHILIDKDAAFVLAYSIILLNTDQHNAQVKTRMTEEDFIRNNRTINGGADLPREYLSEIYHSIRHSEIQMDEDKGTGFQLMTASRWISVIYKSKETSPYIQCDAASHLDRDMFYIVSGPTIAATSVVFEQAEQEDVLRRCIDGLLAIAKLSAYYHLNSVLDDLVVSLCKFTPFFAPLSADEAVLVLGEDARARMATEAVFLIANKYGDYISAGWKNILECVLSLNKLHILPDHIASDAADDPELSTSNLEQEKPSANPVPVVSQSQPSAMPRKSSSFIGRFLLSFDSEETKPLPSEEELAAYKHARGIVKDCHIDSIFSDSKFLQAESLQQLVNSLIRASGKDEASSVFCLELLIAVTLNNRDRILLIWPTVYEHILGIVQLTLTPCTLVEKAVFGVLKICQRLLPYKENLTDELLKSLQLVLKLKAKVADAYCERIAQEVVRLVKANASHVRSRTGWRTIISLLSITARHPEASEAGFEALRFIMSEGAHLLPSNYELCLDAASHFAESRVGEVDRSISAIDLMSNSVFCLARWSQEAKNSIGETDAMMKLSEDIGKMWLKLVKNLKKVCLDQRDEVRNHAISMLQRAIAGADGIMLPQPLWFQCFDSAVFILLDDVLTFSIENSRKTLKKTVEETLVLATKLMSKAFLQSLQDISQQPSFCRLWVGVLNRLETYMSTEFRGKRSEKVNELIPELLKNTLLVMKATGVLLPGDDIGSDSFWQLTWLHVNKISPSLQSEVFPQEELDQFQRRNAKPEDPPVPGNEV | binds | no binding | no binding

Now from value to molecule:

binding [1] | binding [2] | binding [3] | Molecule
binds | no binding |  | endogenous BIG1 (from UniProt F4JSZ5 1-1687)
 | binds |  | retromer subunit VPS35 isoform B (protein, UniProt F4I0P8 1-790) MRTLAGVEDEDKWLAEGIAGIQHNAFFMHRALDANNLREVLKYSALMLSELRTSKLSPQKYYDLYMRAFDQLRQLEIFFKDESRHGLPVVDLYELVQHAGNILPRMYLLCTVGSVYIKSKQAPSKDVLKDLVEMCRGVQHPIRGLFLRSYLAQVSRDKLPEIGSDYEGDANTVMDAVEFVLQNFTEMNKLWVRIQHQGPGTVREKQEKERNELRDLVGKNLHVLGQIEGVDLEMYKETVLPRVLEQVVNCKDKLAQYYLMECIIQVFPDEYHLQTLETLLAACTQLMPTVDTKIVLTQLMDRLSNYAASSPDVLHEFLQVEAFAKLSNAIGKVIDTQLEMPIVGAMTLFVSLLTFTLRVHPDRLDYVDQVLGACVVKLSSVPKLEDARAMKQVVALLSAPLEKYSDIVTALTLSNYPRVMDHLDDGTNKVMAMLIIQSIMKTDSCISTADKVEVLFELIKGLIKDLDETNAEELDEEDFQEEQNSVARLIHMLDNEEPEEMLKIICVVRRHLMTGGPRRLPFTVPPLVFSAVRLVRQLESQGGDIAGEDSATPRKIFQILNQTIEVLTSVPCPELALRLYLQCAEAASDCDLEPVAYEFFTQAFMLYEEEIADSKAQVTAIHLIVGTLQRINVFGVENRDTLTHKATGYSARLLKKPDQCRAVYACSHLFWVDDPDGIKDGERVLLCLRRALRIANAAQQMASATRGSSGPVTLFVEILNKYIYFFEKGNPHITPSDIQSLIELINNEMQSDNGNTTIHSDPFFTSTLRYIKFIKQKGGLMGEKYDPIKL
 | binds |  | retromer subunit VPS35 isoform A (protein, UniProt Q7X659 1-787) MIADGSEDEEKWLAAGAAAFKQNAFYMQRAIDSNNLKDALKYSAQMLSELRTSKLSPHKYYDLYMRAFDELRKLEIFFMEETRRGCSVIELYELVQHAGNILPRLYLLCTAGSVYIKTKEAPAKEILKDLVEMCRGIQHPLRGLFLRSYLAQISRDKLPDIGSEYEGDADTVIDAVEFVLLNFTEMNKLWVRMQHQGPAREKERREKERGELRDLVGKNLHVLSQLEGVDLDMYRDTVLPRVLEQIVNCRDEIAQYYLIDCIIQVFPDEYHLQTLDVLLGACPQLQASVDIMTVLSRLMERLSNYAALNAEVLPYFLQVEAFSKLNNAIGKVIEAQEDMPILSAVTLYSSLLKFTLHVHPDRLDYADQVLGSCVKQLSGKGKIDDTRATKELVSLLSAPLEKYNDVVTALKLTNYPLVVEYLDTETKRIMATVIVRSIMKNNTLITTAEKVEALFELIKGIINDLDEPQGLEVDEDDFQEEQNSVALLIHMLYNDDPEEMFKIVNVLKKHFLTGGPKRLKFTIPPLVVSTLKLIRRLPVEGDNPFGKEASVTATKIFQFLNQIIEALPNVPSPDLAFRLYLQCAEAADKCDEEPIAYEFFTQAYILYEEEISDSKAQVTALQLIIGTLQRMQVFGVENRDTLTHKATGYAAKLLKKPDQCRAVYACSHLFWLEDRETIQDGERVLLCLKRALKIANSAQQVANTARGSTGSVTLFIEILNKYLYFYEKGVPQITVESVESLIKLIKNEESMPSDPSAESFFATTLEFMEFQKQKEGAIGERYQAIKV

These are yes or no findings as the source states them, for the method shown. Binding seen in cells or lysates may run through a third protein. These calls come from enrichment with a bait or labelling near it, and not all partners need be listed. For some of these results: A no says only that the protein was not detected with the bait.
